Test results published in paper PMC5762634.

By UniProt entry, the sequences of proteins in these tests, tags left out. Where a name states a change or a piece, a line headed by the entry shows the natural chain unless it says otherwise.
UniProt P51858: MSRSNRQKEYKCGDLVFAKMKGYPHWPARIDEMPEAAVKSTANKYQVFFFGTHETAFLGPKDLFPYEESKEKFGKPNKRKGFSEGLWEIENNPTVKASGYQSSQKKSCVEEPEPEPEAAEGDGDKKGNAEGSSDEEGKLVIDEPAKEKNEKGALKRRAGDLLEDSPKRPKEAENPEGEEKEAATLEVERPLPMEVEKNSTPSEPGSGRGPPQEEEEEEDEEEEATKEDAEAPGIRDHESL

Molecular target: HDGF full-length (human) (UniProt P51858)
Assay: solid-phase binding assay (preformed HDGF-DNA complex shows reduced NCL binding)
Settings: nucleolin-coated plate; SEC: 20 mM Tris-HCl pH 7.5, 5 mM EDTA, 5 mM beta-ME, no added salt; protein:DNA 1:1, incubated overnight at 4 C; recombinant protein; residues 1-240

Q: Does “CAGGCTGGTCTTGAA (double strand) [15-bp SMYD1]” bind?
A: Result: binds

For at least one entry, the source does not settle the construct or the ends of the probe. At least one verdict rests on a figure or table, not on a statement of the authors.
